# Data: PubChem BioAssay AID1259415 (National Center for Advancing Translational Sciences (NCATS), 2018)
# Several values for one entry are separate records, joined by “and”; a condition that tells them apart may be missing. Identical values can stand only once. About 18,000 (4.4%) of roughly 410,000 compounds were called active. The shares of active, inactive and inconclusive entries below differ from those in the screen. Cut-off read from the data, not from the text of the source: active = activity change below about -60%; inconclusive = no clear call, values can overlap the other calls; inactive = above about -39%.
# Assay: qHTS Assay for inhibitors of the human cytomegalovirus (HCMV)
# Details: HFF cells, HCMV-luciferase reporter, 72 h; at 57.5 µM; stronger effect = lower value
# In short: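 Cell-based, HFFs, 1000 cells/well, 16 h 37C; cpds in DMSO + HCMV-luc, MOI 1 PFU/cell; 72 h 37C; OneGlo luminescence after 5 min RT; norm. to buffer vs Salinomycin 10uM.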
# % is set by controls: 0 for no effect and ±100 for the full control effect.
row,SMILES,"activity change, negative = inhibition"
1,CN1c2ccc(C=O)c3c(C=O)ccc(c23)N(C)C1(C)C,inconclusive: -51.1%
2,Cc1ccc2sc(NNC(=O)c3cc(=O)c4ccccc4o3)nc2c1C,inconclusive: -51.4%
3,O=C(CCN1C(=O)c2ccccc2C1=O)Nc1ccc(-c2nc3ccccc3s2)cc1,inactive: 129%
4,C=Cn1ccnc1P(=S)(c1cc(N(CC)CC)ns1)c1nccn1C=C,inconclusive: -40.1%
5,O=C(NN=Cc1ccc(N(CCCl)CCCl)cc1Cl)c1cccnc1,inactive: 15.9%
6,c1ccc2c(CCNc3ncnc4nc[nH]c34)c[nH]c2c1,inconclusive: -56.1%
7,COc1ccccc1CC(=O)Nc1cc(OC)c(NC(=O)c2ccccc2)cc1OC,inconclusive: -42%
8,CC[C@]12c3[nH]c4ccc(Cl)cc4c3CCN1C(=O)[C@@H](CC(=O)NCc1cccc(C(F)(F)F)c1)C[C@@H]2C(=O)N1CCN(C(=O)c2ccco2)CC1,active: -99.9%
9,Cc1ccc(NC(=S)NC(=O)/C=C/c2ccc(Cl)cc2)cc1,inconclusive: -48.3%
10,NC(=S)NN=C(Cc1ccccc1)Cc1ccccc1,active: -70.2%
11,CC(C)(C)c1ccc(OCc2nc3ccccc3n2CCOc2ccccc2)cc1,inactive: 51.6%
12,CC(=O)Nc1cccc(NC(=O)COc2ccc3c(c2)OCO3)c1,inactive: 64.4%
13,CCN1CCN(Cc2c(O)ccc3c2O/C(=C\C=C\c2ccccc2OC)C3=O)CC1,inactive: -5.09%
14,COc1ccc(OC)c(S(=O)(=O)Nc2ccc(OCC(=O)O)cc2)c1,inconclusive: -40.4%
15,CCOC(=O)c1ccccc1NC(=O)CN(c1cccc(C)c1C)S(=O)(=O)c1ccccc1,inactive: -37.9%
16,CN1CCC2(O)OCCCC2C1 (configuration not stated),inconclusive: -40.6%
17,CC(=O)N1CCCc2cc(S(=O)(=O)N3CCCC(C(=O)NCc4ccccc4Cl)C3)ccc21 (configuration not stated),inconclusive: -44.1%
18,CCCCCn1c(=O)c(C(=O)Nc2ccccn2)c(O)c2ccccc21,active: -97.7%
19,N#Cc1ccc(-c2csc(NNC(=O)c3ccccc3)n2)cc1,inactive: -31.4%

row,SMILES,"activity change, negative = inhibition"
1,Cc1onc(-c2ccc3c(c2)OCO3)c1-c1ccc2[nH]ccc2c1,inconclusive: -56.4%
2,O=C(C1CCN(c2ncnc3c2nc2n3CCCCC2)CC1)N1CCN(c2ccccc2F)CC1,inconclusive: -54.4% and active: -64.1%
3,CC(C)Nc1c(N)c(=O)oc2ccccc12,inconclusive: -43.8%
4,O=[N+]([O-])c1ccc(NN=C(Oc2ccccc2)c2ccc([N+](=O)[O-])cc2)cc1,active: -70.4%
5,COC(=O)C1=CN(c2ccc(C(C)(C)C)cc2)C(N)=C(C#N)C1c1ccc(OC)cc1 (configuration not stated),active: -77.1%
6,C/C(O)=C(\C#N)C(=O)Nc1cc(Br)ccc1Br,inconclusive: -41.9%
7,COc1cccc(CN(C)C(=O)CCN=C2NS(=O)(=O)c3ccccc32)c1,inactive: 27.4%
8,Cc1ccc2ccc3ccc(C)nc3c2n1,active: -94.1%
9,CCCCOc1ccc(C(O)C(CN2CCCCC2)c2ccccc2)cc1 (configuration not stated),inconclusive: -54%
10,Cc1nc2ncnn2c(N2CCN(C(=O)Cc3cccs3)CC2)c1C,inconclusive: -43%
11,COc1c(F)c(F)cc2c(=O)c(C(=O)O)cn(C3CC3)c12,active: -61.1%
12,Cc1oc(-c2cccc(Cl)c2)nc1CS(=O)(=O)CC(=O)NC1CC1,inactive: -17.6%
13,O=C1C=C(Nc2ccccc2)c2ccccc2C1=O,active: -64.1%
14,CN(C)S(=O)(=O)N1CCC(Oc2ccc(C(=O)NCc3cnn(C)c3)cc2)CC1,inactive: -16.7%
15,CCc1ccc(C(=O)NNc2ccc(F)cc2F)cc1,inconclusive: -59.3%
16,CCOc1cc(S(=O)(=O)N2CCCCC2)ccc1F,inactive: -5.97%
17,CCOC(=O)c1sc(NC(=O)/C=C/c2ccc(F)cc2)nc1C,inactive: -30.1%
18,CCN(CC(=O)Nc1cc(Cl)ccc1C)C(=O)c1ccc2c(c1)NC(=O)C(C)S2 (configuration not stated),inconclusive: -49.8%
19,COc1cccc(/C(=N/O)C2CC2c2ccc(Cl)cc2)c1 (configuration not stated),inconclusive: -42.8%

row,SMILES,"activity change, negative = inhibition"
1,COc1ccc(-c2cn(Cc3ccc(C)cc3)nn2)cc1,inconclusive: -47.1%
2,CCc1ccccc1NS(=O)(=O)c1ccc2nc(-c3ccccc3)[nH]c2c1,inconclusive: -49.2%
3,CC(C)CNc1cccc2c1S(=O)(=O)N(Cc1ccc(F)cc1)[C@@H](C)[C@H](c1ccccc1)O2,inactive: -1.48%
4,Cc1ccc(NC(=O)Cn2nc(C(F)(F)F)c3c2CCCC3)cc1C,inactive: -9.99%
5,Cc1ccccc1N1C(=S)NC2c3ccccc3OC1(C)C2C(=O)N(C)C (configuration not stated),inconclusive: -45.3%
6,Cc1ccc(O)c(C2=Nc3ccccc3C2(C)C)c1,inactive: -13.2%
7,CC1=C(C(=O)OC2CCCC2)C(c2c(Cl)cccc2Cl)CC(=O)N1 (configuration not stated),inconclusive: -56.1%
8,CCSc1nnc(-c2ccc(Cl)cc2)c2ccccc12,inconclusive: -42.2%
9,O=C(COC(=O)CCC(=O)c1ccc(Cl)cc1)NCc1ccco1,inactive: 12%
10,CNC(=O)COC(=O)c1cc(-c2ccco2)nc2ccccc12,inconclusive: 0%
11,O=C(Cn1c(=O)n(CC2CS2)c2ccccc21)N1CCCCC1 (configuration not stated),active: -89.4%
12,Cc1ccc(CNC(=O)CN2C(=O)COc3ccc(S(=O)(=O)N4CCCCC4)cc32)o1,inconclusive: -45.6%
13,Clc1cccc(CSc2ccc(-c3cccnc3)nn2)c1,inconclusive: 0%
14,CCNC(=O)CN(Cc1ccccc1)S(=O)(=O)c1ccccc1,inconclusive: -42%
15,COc1ccc(-c2nc3ccccc3n3c(-c4cccc(C)c4)c4c(=O)n(C)c(=O)n(C)c4c23)cc1OC,inconclusive: -40.8%
16,COc1ccc(-n2c(-c3ccc(Cl)cc3)c[n+]3c2CCCCC3)cc1,active: -80%
17,COc1ccc(C(=O)O/N=C(\N)c2ccccn2)c(OC)c1,active: -74.9%
18,CCOc1ccc(S(=O)(=O)/N=C(/Nc2ccc(S(N)(=O)=O)cc2)c2ccccc2)cc1,active: -103%
19,Cc1nc2ccc(NS(=O)(=O)c3cccc([N+](=O)[O-])c3)cc2s1,inconclusive: -41.1%
